Some entries share one result that the patent states for a list of compounds.
Tested on: Plasmodium falciparum
Assay: In vitro antimalarial activity against Plasmodium falciparum (strain not given)
Type: cell-based
Details: judged from the IC50 values of Table 1
Description: The in vitro assays were conducted by using a modification of the semiautomated microdilution technique of Desjardins et al.^11 and Chulay et al.^12 Two strains of Plasmodium falciparum clones, from CDC Indochina III (W-2), CDC Sierra Leone I (D-6). […] They were derived by direct visualization and micromanipulation from patient isolates.^13 Test compounds were initially dissolved in DMSO and diluted 400-fold in RPMI 1640 culture medium supplemented with 25 mM Hepes, 32 mM HaHCO3, and 10% Albumax I® (GIBCO BRL, Grand Island, N.Y.). These solutions were subsequently serially diluted 2-fold with a Biomek 1000® (Beckman, Fullerton, Calif.) over 11 different concentrations. The parasites were exposed to serial dilutions of each compound for 48 h and incubated at 37° C. with 5% O2, 5% CO2, and 90% N2 prior to the addition of [^3H]hypoxanthine. After a further incubation of 18 h, parasite DNA was harvested from each microtiter well using Packard Filtermate 196 Harvester® (Meriden, Conn.) onto glass filters. Uptake of [^3H]hypoxanthine was measured with a Packard Topcount scintillation counter. […] This procedure was repeated with the test compounds initially dissolved in DMSO and diluted 400-fold in RPMI 1640 culture medium supplemented with 25 mM Hepes, 32 mM HaHCO3, and with blood serum replacing the 10% Albumax I® (see Table 1, figures without parentheses). […]

| SMILES | effectiveness in treating/reducing malaria parasites as shown in Table 1 |
| --- | --- |
| O=C1c2ccccc2-n2c1nc1ccccc1c2=O [Example 1] | effective |
| O=C1/C(=c2\c3ccccc3n3c(=O)c4ccccc4nc23)Nc2ccccc21 [Example 51] | effective |

Source: patent US8012987B2, “Indolo[2,1-b] quinazole-6,12-dione antimalarial compounds and methods of treating malaria therewith” (The United States of America as represented by the …, priority 1998, dated 2011)
